Data as given in PubChem BioAssay AID1224828 (NIAID, 2016).
In all, the deposit lists about 17,000 reagents; shown is a random part of them. 762 of them (4.5%) count as active. 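Active calls include both raised and lowered p65 entry, mostly lowered; wells with fewer than 50 cells lack a z-score.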 The raw values are shown without normalisation.

Screen: 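Knock-downs that increase or decrease LPS-induced p65 nuclear translocation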 (primary screen)
Cell system: mouse RAW264.7 G9 macrophage reporter cells (GFP-p65, Tnf promoter-mCherry)
Reagent: siRNA pool against mouse genes, 100 nM
Timing: 2 days siRNA transfection, then 40 min LPS before fixation
Treatment: LPS (Salmonella minnesota R595) at 10 ng/ml
Detection: 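Imaged p65 nuclear translocation ratio, normalised to the plate median, converted to robust z-scores and averaged across two replicates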
Reading the numbers: p65 translocation robust z-score: higher = more nuclear NF-kappaB p65 after LPS than the plate median; nuclear/cytoplasmic p65 ratio: higher = more nuclear NF-kappaB p65
Rule for the call: 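Called active when z exceeds 3.3 or falls under -1.56 (median of Tlr4 controls), giving activity score of at least 50; no calls for control wells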
Calls: active = hit (p65 shift raised or lowered); inactive = no clear change

Against Hpx (hemopexin), the values are p65 translocation robust z-score -3.25; nuclear/cytoplasmic p65 ratio, rep 1 = 1.28; nuclear/cytoplasmic p65 ratio, rep 2 = 1.1; low cell count flag enough cells to score; active.
Sprr2f (small proline-rich protein 2F) scored p65 translocation robust z-score -0.16; nuclear/cytoplasmic p65 ratio, rep 1 = 1.44; nuclear/cytoplasmic p65 ratio, rep 2 = 1.18; low cell count flag enough cells to score; inactive.
Lrrc61 (leucine rich repeat containing 61) gave p65 translocation robust z-score -0.54; nuclear/cytoplasmic p65 ratio, rep 1 = 1.5; nuclear/cytoplasmic p65 ratio, rep 2 = 1.75; low cell count flag enough cells to score; inactive.
For Abt1 (activator of basal transcription 1), the entry reads p65 translocation robust z-score -0.25; nuclear/cytoplasmic p65 ratio, rep 1 = 1.61; nuclear/cytoplasmic p65 ratio, rep 2 = 1.54; low cell count flag enough cells to score; inactive.
Silencing of Tmem9 (transmembrane protein 9) gave: nuclear/cytoplasmic p65 ratio, rep 1 = 1.24; nuclear/cytoplasmic p65 ratio, rep 2 = 1.24; low cell count flag fewer than 50 cells per well; well left out of scoring; inactive.
Mre11a (MRE11A homolog A, double strand break repair nuclease) gave p65 translocation robust z-score -0.08; nuclear/cytoplasmic p65 ratio, rep 1 = 1.34; nuclear/cytoplasmic p65 ratio, rep 2 = 1.42; low cell count flag enough cells to score; inactive.
With knock-down of Nomo1 (nodal modulator 1) the results were p65 translocation robust z-score 1.39; nuclear/cytoplasmic p65 ratio, rep 1 = 1.64; nuclear/cytoplasmic p65 ratio, rep 2 = 1.56; low cell count flag enough cells to score; inactive.
Knock-down of Zbtb22 (zinc finger and BTB domain containing 22) came out at: p65 translocation robust z-score 0.53; nuclear/cytoplasmic p65 ratio, rep 1 = 1.29; nuclear/cytoplasmic p65 ratio, rep 2 = 1.31; low cell count flag enough cells to score; inactive.
After knock-down of Rhou (ras homolog family member U), the record shows p65 translocation robust z-score 4.66; nuclear/cytoplasmic p65 ratio, rep 1 = 1.8; nuclear/cytoplasmic p65 ratio, rep 2 = 2.53; low cell count flag enough cells to score; active.
For Or2j6 (olfactory receptor family 2 subfamily J member 6), the values are p65 translocation robust z-score 1.07; nuclear/cytoplasmic p65 ratio, rep 1 = 1.59; nuclear/cytoplasmic p65 ratio, rep 2 = 1.39; low cell count flag enough cells to score; inactive.
After knock-down of H2-M10.2 (histocompatibility 2, M region locus 10.2), the screen gave nuclear/cytoplasmic p65 ratio, rep 1 = 1.17; nuclear/cytoplasmic p65 ratio, rep 2 = 1.21; low cell count flag fewer than 50 cells per well; well left out of scoring; inactive.
Against Anxa6 (annexin A6), the entry reads p65 translocation robust z-score 0.36; nuclear/cytoplasmic p65 ratio, rep 1 = 1.69; nuclear/cytoplasmic p65 ratio, rep 2 = 1.66; low cell count flag enough cells to score; inactive.
Slc5a3 gave p65 translocation robust z-score -0.7; nuclear/cytoplasmic p65 ratio, rep 1 = 1.19; nuclear/cytoplasmic p65 ratio, rep 2 = 1.28; low cell count flag enough cells to score; inactive.
For Prdm13 (PR domain containing 13), the entry reads p65 translocation robust z-score 2.61; nuclear/cytoplasmic p65 ratio, rep 1 = 1.72; nuclear/cytoplasmic p65 ratio, rep 2 = 1.88; low cell count flag enough cells to score; inactive.
With knock-down of Tex18 (testis expressed gene 18), the record shows p65 translocation robust z-score 0.25; nuclear/cytoplasmic p65 ratio, rep 1 = 1.44; nuclear/cytoplasmic p65 ratio, rep 2 = 1.22; low cell count flag enough cells to score; inactive.
With knock-down of Slc45a3, the record shows p65 translocation robust z-score 3.32; nuclear/cytoplasmic p65 ratio, rep 1 = 1.78; nuclear/cytoplasmic p65 ratio, rep 2 = 1.27; low cell count flag enough cells to score; active.
Or3a4 (olfactory receptor family 3 subfamily A member 4) scored nuclear/cytoplasmic p65 ratio, rep 1 = 1.47; nuclear/cytoplasmic p65 ratio, rep 2 = 1.47; low cell count flag fewer than 50 cells per well; well left out of scoring; inactive.
Silencing of Arhgef7 (Rho guanine nucleotide exchange factor) gave: p65 translocation robust z-score 0.52; nuclear/cytoplasmic p65 ratio, rep 1 = 1.66; nuclear/cytoplasmic p65 ratio, rep 2 = 1.74; low cell count flag enough cells to score; inactive.
After knock-down of Col8a2 (collagen, type VIII, alpha 2), the screen gave nuclear/cytoplasmic p65 ratio, rep 1 = 1.26; nuclear/cytoplasmic p65 ratio, rep 2 = 1.07; low cell count flag fewer than 50 cells per well; well left out of scoring; inactive.
D930030K17Rik (RIKEN cDNA D930030K17 gene) gave p65 translocation robust z-score -0.66; nuclear/cytoplasmic p65 ratio, rep 1 = 1.41; nuclear/cytoplasmic p65 ratio, rep 2 = 1.52; low cell count flag enough cells to score; inactive.
Knock-down of Epm2a (epilepsy, progressive myoclonic epilepsy, type 2 gene alpha) resulted in: p65 translocation robust z-score -0.75; nuclear/cytoplasmic p65 ratio, rep 1 = 1.36; nuclear/cytoplasmic p65 ratio, rep 2 = 1.26; low cell count flag enough cells to score; inactive.

Entries listed so far whose target name begins with H or h:
Hpx (hemopexin) → p65 translocation robust z-score = -3.25; nuclear/cytoplasmic p65 ratio, rep 1 = 1.28; nuclear/cytoplasmic p65 ratio, rep 2 = 1.1; low cell count flag = enough cells to score; outcome = active
H2-M10.2 (histocompatibility 2, M region locus 10.2) → nuclear/cytoplasmic p65 ratio, rep 1 = 1.17; nuclear/cytoplasmic p65 ratio, rep 2 = 1.21; low cell count flag = fewer than 50 cells per well; well left out of scoring; outcome = inactive
